# Test results taken from PubChem BioAssay AID1259415 (National Center for Advancing Translational Sciences (NCATS), 2018).
# “And” between values parts separate entries of the source, which are not always exact repeats. Identical values can stand only once. The whole screen tested about 410,000 compounds, of which about 18,000 (4.4%) were called active. Inconclusive results, whose numbers are uncertain, are shown with a selection of clear calls. No stated cut-off is given here; in the data, active means activity change below about -60%; inconclusive means no clear call, values can overlap the other calls; inactive means above about -39%.
# Assay: qHTS Assay for inhibitors of the human cytomegalovirus (HCMV)
# Conditions: HFF cells, HCMV-luciferase reporter, 72 h; at 57.5 µM; stronger effect = lower value
# Summary of the method: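 Compounds were evaluated in HFFs infected with an HCMV luciferase reporter virus (MOI 1 PFU/cell). Luciferase in lysates collected 72 h post infection served as the replication measure.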
# On the % scale 0 is the no-effect control and ±100 the full control effect.
row,SMILES,"activity change, negative = inhibition"
1,O=C(Cn1cccc1C(=O)c1ccccc1)NCc1ccc(F)cc1,inconclusive: -56%
2,COc1ccc(S(=O)(=O)Nc2ncccn2)cc1,inactive: 25.7%
3,CCOC(=O)N1CCc2c(sc(NC(=O)C3=COCCO3)c2C(N)=O)C1,inactive: 8.47%
4,CC(C)(C)n1nc(-c2ccc(F)cc2)c2c(N)ncnc21,inconclusive: -42.8%
5,Cc1cc(/C=N/Nc2ccc([N+](=O)[O-])cn2)c(C)n1-c1ccccc1,inactive: -10.6%
6,O=C(Nc1cc(C(F)(F)F)ccc1N1CCOCC1)c1ccc2ccccc2n1,inactive: 33.4%
7,CCCN(CCC)CCNC(=O)c1cc2c(-c3ccccc3F)nn(C)c2s1,inactive: -16.7% and inactive: -23.7%
8,NC(N)=N/N=C/c1ccc(Cl)c(Cl)c1,inconclusive: -59.9%
9,Nc1nc(SCc2ccc(Cl)cc2Cl)nc2nc3c(cc12)CCCC3,inconclusive: -41.6%
10,O=C(CCOc1ccccc1)Nc1ccnn1C1CCN(Cc2ccccc2)CC1,inconclusive: -47%
11,COc1cc2c(cc1NC(=O)COC(=O)CNC(=O)c1ccccc1)oc1ccccc12,inconclusive: -57.9%
12,CCC1OC23CCCCC2C(C#N)(C(=N)O3)C1(C#N)C#N (stereo unspecified),inconclusive: -43.1%
13,COc1cc(N=Nc2ccccc2C(=O)O)ccc1O,inconclusive: -43.7%
14,O=C(NCCN1CCOCC1)c1ccc(/C=C2\Sc3ccccc3N(Cc3ccc(F)cc3)C2=O)cc1,inconclusive: -53.5%
15,Cc1ccc(C(=O)Nc2ccncc2)c(Cl)c1,inactive: -39.4%
16,COc1ccc(OC)c(S(=O)(=O)N2CCN(CC(O)COc3ccccc3)CC2)c1 (stereo unspecified),inactive: 9.94%
17,CCN(CC)CCNC(=O)c1ccc(NC(=O)c2cccc(S(=O)(=O)N3CCc4ccccc43)c2)cc1,inconclusive: -41.9%
18,Cc1ccc(S(=O)(=O)Nc2cc3c(cc2N2CCOCC2)n(C)c(=O)n3C)c(C)c1,inactive: 14.5%
19,COc1ccc(S(=O)(=O)N2CCC(C(=O)Nc3ccccc3N3CCCCC3)CC2)cc1OC,inactive: 28.2%

row,SMILES,"activity change, negative = inhibition"
1,COc1ccc(/C=C2\SC(=S)N(CCCC(=O)N3CCN(C)CC3)C2=O)cc1,active: -77.3%
2,C=C(C)CN(CC)c1nc(N)c2c(N)nc3c(c2c1C#N)CC(=O)N3C12CC3CC(CC(C3)C1)C2,active: -69.4%
3,CC(C)CN(CC(C)C)C(=O)COn1nnc2ccc(S(=O)(=O)N3CCOCC3)cc21,inconclusive: -41.1%
4,COC(=O)C1=C(C)N(Cc2ccccc2C(F)(F)F)C(=NCc2ccc3c(c2)OCO3)NC1c1cccc(Cl)c1 (stereo unspecified),inactive: 2.7%
5,COc1cc(CN(C)Cc2cc(=O)n3ccsc3n2)ccc1OC(F)F,inconclusive: -47%
6,COc1cc2c(cc1OC)C(NC(=O)C(F)(F)F)CNC2=O (stereo unspecified),inconclusive: -47.7%
7,CN(C)CCCNc1oc(/C=C/c2ccc(F)cc2)nc1C#N,inconclusive: -42.5%
8,CS(=O)(=O)N(CC(=O)N/N=C/c1ccc(OCC(=O)N2CCOCC2)cc1)c1ccccc1Cl,inconclusive: -46.9%
9,CCOC(=O)CN(C#N)c1nc(N(C)C)nc(N(C)C)n1,inconclusive: -44.6%
10,CCCCOc1ccc(CNn2c(C)nc3ccccc3c2=O)cc1,inconclusive: -47.2%
11,Cc1ccc(C2=Nc3ccccc3N(CC(=O)Nc3cccc(F)c3)C(=O)C2)cc1C,inactive: 30.6%
12,COc1cc(SC)ccc1C(=O)Nc1ccc(Cl)cn1,active: -74.9%
13,N#C/C(=N\Nc1ccccc1[N+](=O)[O-])C(=N)N1CCCCC1,inactive: -25.4%
14,OCCNCc1ccc(OCc2ccc(Cl)cc2Cl)cc1,inconclusive: -45.8%
15,CC(C)CN(CC(C)C)C(=O)CN1c2cccc3cccc(c23)S1(=O)=O,inactive: 51.7%
16,Brc1ccccc1CNCCc1ccc2c(c1)OCO2,inactive: 45.4%
17,O=C(NNC(=S)NC1CCCCC1)c1sc2ccccc2c1Cl,inconclusive: -53.3%
18,O=C(COc1ccc(S(=O)(=O)NC2CCCCC2)cc1Cl)NCC1CCCO1 (stereo unspecified),inactive: -15.4%
19,Clc1cccc(-c2ccc(C=Nc3ccc(N4CCOCC4)cc3)o2)c1,inconclusive: -41.2%

row,SMILES,"activity change, negative = inhibition"
1,S=c1nc(SCc2ccccc2)[nH]c2ccccc12,inconclusive: -46.5%
2,CN(c1ccc(O)cc1)c1nc(O)c(C2=c3ccccc3=NC2=O)s1,inconclusive: -50.3%
3,Cc1ccc(CSc2cn(CC(=O)N3CCCCC3)c3ccccc23)cc1,inconclusive: -56.1%
4,Cc1cccn2c(=O)c3cc(C#N)c(=O)n(CCCN4CCOCC4)c3nc12,inconclusive: -45.2%
5,CCOc1ccc(-c2cnc(NCc3ccc(OC)cc3OC)n2C)cc1,inactive: -28%
6,CCN(CC)C(=O)Oc1ccc2c(=O)c(-c3ccc(OC)cc3)c(C)oc2c1,inconclusive: -56.1%
7,CC(C1CC1)N(Cc1ccccc1)C(=O)NC(=O)c1cccc(F)c1 (stereo unspecified),inconclusive: -40.8%
8,CCNC(=S)N/N=C(\C)c1ccc(Cl)s1,inconclusive: -42.1%
9,CCOC(=O)C(C)Sc1nc(=O)n2cccc(C)c2n1 (stereo unspecified),inconclusive: -42%
10,CCCCCCn1c(=O)n2n(c1=O)[C@@H]1CN(S(=O)(=O)c3ccc(C)cc3)C[C@]1(O)[C@@H](OC(=O)NCC1CCCCC1)C2,inactive: -21.2%
11,Fc1ccccc1NC(=S)NCCc1cccc(Cl)c1,inconclusive: -57.5%
12,CC(C)n1nnnc1SCC(=O)Nc1ccccc1N1CCOCC1,inconclusive: -53.4%
13,CCN(CC(=O)Nc1cc(Cl)ccc1C)C(=O)c1ccc(=O)n(Cc2ccccc2)n1,inconclusive: -57.7%
14,Cc1ccc(-c2nnc(N3CCCCC3)c3ccccc23)cc1,active: -60.8%
15,O=[N+]([O-])c1cccnc1Oc1ccc(F)cc1,inconclusive: -46.8%
16,O=C(O)c1cccc2c1-c1ccc([N+](=O)[O-])cc1C2=O,inactive: 22%
17,Cc1ccc2c(c1)c1c(n2CC(O)Cn2ccnc2C)C(=O)CCC1 (stereo unspecified),inconclusive: -40.3%
18,Cc1coc2cc3oc(=O)c(CC(=O)N4CCCCC4)c(C)c3cc12,inconclusive: -41.5%
